These are yes or no findings as the source states them, for the method shown. In cells and extracts the contact can be indirect. For some of these results: A result given as binding can be weak or reduced; the word gives no strength.
How the values were obtained:
[1] = molecular target: MBP–xDnaJB6-L (Xenopus laevis); experiment: pull-down; MBP–xDnaJB6-L on protein A Dynabeads coated with anti-MBP antibody, incubated in CSF-arrested Xenopus egg extract with 15 μM RanQ69L-GTP, 15 min at 20°C then 30 min on ice; three washes in CSF-XB and one in PBS containing NP40; western blot; only the target purified
[2] = molecular target: MBP–xDnaJB6-L (Xenopus laevis); experiment: condition: only without RanGTP added to the extract; pull-down; MBP–xDnaJB6-L on protein A Dynabeads coated with anti-MBP antibody, incubated in CSF-arrested Xenopus egg extract without RanGTP, 15 min at 20°C then 30 min on ice; three washes in CSF-XB and one in PBS containing NP40; western blot; only the target purified
[3] = molecular target: GST–xDnaJB6-L (Xenopus laevis); experiment: pull-down; GST–xDnaJB6-L on protein A Dynabeads coated with anti-GST antibody, incubated in CSF-arrested Xenopus egg extract without RanGTP, 15 min at 20°C then 30 min on ice; three washes in CSF-XB; western blot; only the target purified
[4] = molecular target: GST–xDnaJB6-L (Xenopus laevis); experiment: condition: only with RanGTP (RanQ69L-GTP, 15 μM) added to the extract; pull-down; GST–xDnaJB6-L on protein A Dynabeads coated with anti-GST antibody, incubated in CSF-arrested Xenopus egg extract with 15 μM RanQ69L-GTP, 15 min at 20°C then 30 min on ice; three washes in CSF-XB; western blot; only the target purified

Protein sequences, listed by entry. Tags and fused reporters are not part of them.
UniProt Q6PCJ1: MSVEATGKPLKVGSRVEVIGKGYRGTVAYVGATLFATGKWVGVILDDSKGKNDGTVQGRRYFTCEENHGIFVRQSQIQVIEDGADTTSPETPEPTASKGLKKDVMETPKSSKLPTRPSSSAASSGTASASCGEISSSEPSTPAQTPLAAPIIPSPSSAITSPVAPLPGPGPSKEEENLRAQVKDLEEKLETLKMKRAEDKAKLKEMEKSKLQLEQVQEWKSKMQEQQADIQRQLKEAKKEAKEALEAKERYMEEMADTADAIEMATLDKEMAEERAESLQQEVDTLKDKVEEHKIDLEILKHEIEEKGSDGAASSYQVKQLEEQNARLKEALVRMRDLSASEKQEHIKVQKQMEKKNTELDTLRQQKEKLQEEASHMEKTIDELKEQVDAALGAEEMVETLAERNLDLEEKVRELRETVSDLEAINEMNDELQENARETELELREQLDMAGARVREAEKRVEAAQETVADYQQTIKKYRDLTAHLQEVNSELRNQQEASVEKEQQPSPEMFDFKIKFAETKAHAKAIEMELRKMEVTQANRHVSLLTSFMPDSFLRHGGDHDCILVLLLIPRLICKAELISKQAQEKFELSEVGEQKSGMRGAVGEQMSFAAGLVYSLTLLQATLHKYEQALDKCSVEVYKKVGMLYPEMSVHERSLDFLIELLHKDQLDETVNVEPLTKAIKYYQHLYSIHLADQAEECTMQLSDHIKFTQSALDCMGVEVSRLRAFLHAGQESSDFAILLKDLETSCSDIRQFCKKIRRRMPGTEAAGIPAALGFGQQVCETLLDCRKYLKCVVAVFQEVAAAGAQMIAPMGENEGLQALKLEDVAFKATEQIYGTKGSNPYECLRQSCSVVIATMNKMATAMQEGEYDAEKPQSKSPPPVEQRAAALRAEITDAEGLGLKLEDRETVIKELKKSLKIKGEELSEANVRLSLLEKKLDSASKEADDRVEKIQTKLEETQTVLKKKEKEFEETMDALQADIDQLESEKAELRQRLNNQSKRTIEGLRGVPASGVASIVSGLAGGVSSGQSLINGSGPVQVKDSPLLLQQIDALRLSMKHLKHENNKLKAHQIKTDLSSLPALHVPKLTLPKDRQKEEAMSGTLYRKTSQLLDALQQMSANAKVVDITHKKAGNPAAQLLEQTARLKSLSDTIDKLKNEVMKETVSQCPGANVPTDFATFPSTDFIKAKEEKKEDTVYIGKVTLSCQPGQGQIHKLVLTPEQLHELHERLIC
UniProt P52297: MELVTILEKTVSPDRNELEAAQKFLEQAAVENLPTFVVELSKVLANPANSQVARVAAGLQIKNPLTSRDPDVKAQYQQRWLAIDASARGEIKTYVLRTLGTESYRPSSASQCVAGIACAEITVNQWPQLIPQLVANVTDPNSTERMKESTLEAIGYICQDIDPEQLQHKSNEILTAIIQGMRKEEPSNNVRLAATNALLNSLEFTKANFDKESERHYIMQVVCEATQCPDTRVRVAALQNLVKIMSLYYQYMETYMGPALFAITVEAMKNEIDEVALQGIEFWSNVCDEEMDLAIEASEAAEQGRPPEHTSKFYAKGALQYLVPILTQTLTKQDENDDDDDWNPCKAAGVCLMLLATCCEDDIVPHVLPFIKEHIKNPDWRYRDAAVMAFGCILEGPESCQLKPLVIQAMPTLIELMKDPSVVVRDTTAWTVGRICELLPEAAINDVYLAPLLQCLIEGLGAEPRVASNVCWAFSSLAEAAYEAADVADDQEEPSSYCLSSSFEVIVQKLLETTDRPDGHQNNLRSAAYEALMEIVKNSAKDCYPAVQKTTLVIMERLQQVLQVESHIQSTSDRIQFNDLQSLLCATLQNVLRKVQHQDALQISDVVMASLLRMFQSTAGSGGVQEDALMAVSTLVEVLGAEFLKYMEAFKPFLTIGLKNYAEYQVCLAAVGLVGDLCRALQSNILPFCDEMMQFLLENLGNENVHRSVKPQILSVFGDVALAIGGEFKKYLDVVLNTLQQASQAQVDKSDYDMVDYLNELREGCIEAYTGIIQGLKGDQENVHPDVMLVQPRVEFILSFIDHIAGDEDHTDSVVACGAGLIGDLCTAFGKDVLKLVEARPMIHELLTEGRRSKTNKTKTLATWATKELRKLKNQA

binding [1]	binding [2]	binding [3]	binding [4]	Substance
binds	no binding			dynactin subunit p150Glued (from UniProt Q6PCJ1 1-1232)
		binds	no binding	importin-β (from UniProt P52297 1-876)
